Assay results: the supplement of paper PMC11006884
The entries are a selection whose mix differs from that of the whole data set.

compound: COC(=O)C#Cc1ccccc1 [methyl 3-phenylpropiolate]; assay: log2 ratio of iodoacetamide-alkyne labeling of the cysteine site, DMSO over compound (competition); higher = stronger covalent engagement of the cysteine by the compound, active = 1 or more; conditions: 500 µM; treatment time 1 h; system: HEK293T cell lysate
In short: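 HEK293T lysate (2 mg/mL) was incubated with electrophile (500 µM) or vehicle for 1 h at ambient temperature and then with iodoacetamide alkyne for 1 h. Labelled proteins were clicked to sCIP-TMT reagents, pooled, digested, enriched on streptavidin and measured by Orbitrap Eclipse LC-MS/MS with FAIMS, with FragPipe quantification. The per-cysteine log2 competition ratio is mean control-channel reporter intensity over mean compound-channel reporter intensity. Across three replicates with duplicate channels, cysteines quantified in only one replicate were excluded.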

log2 ratio of iodoacetamide-alkyne labeling, active:
CNN2 C175 (UniProt Q99439) 1.04

log2 ratio of iodoacetamide-alkyne labeling, inactive:
CCT7 C345 (UniProt Q99832) 0.0372
SIN3A C486 (UniProt Q96ST3) -0.0562
RNF2 C72 (UniProt Q99496) 0.325
EP400 C162 (UniProt Q96L91) 0.339
NEK1 C276 (UniProt Q96PY6) 0.241
DNAJC7 C7 (UniProt Q99615) 0.0737
KIF2C C287 (UniProt Q99661) 0.0204
NGLY1 C197 (UniProt Q96IV0) 0.0457
MACROD1 C116 (UniProt Q9BQ69) -0.00707
TMEM209 C301 (UniProt Q96SK2) 0.858
POP1 C530 (UniProt Q99575) 0.164
DOCK7 C1944 (UniProt Q96N67) 0.121
TCF25 C216 (UniProt Q9BQ70) 0.479
TXN2 C90 (UniProt Q99757) 0.721
NCAPG C202 (UniProt Q9BPX3) 0.0426
ATAD5 C1529 (UniProt Q96QE3) 0.295
ZFR C899 (UniProt Q96KR1) 0.434
EHMT2 C1175 (UniProt Q96KQ7) -0.0216
CCT7 C450 (UniProt Q99832) 0.055
LYSMD1 C32 (UniProt Q96S90) 0.424
PSMD1 C898 (UniProt Q99460) 0.167
UHRF1 C497 (UniProt Q96T88) 0.223
UniProt Q99590_C346 0.0497
SECISBP2 C719 (UniProt Q96T21) -0.258
ITCH C871 (UniProt Q96J02) 0.185
UniProt Q99590_C478 0.396
MACROD1 C199 (UniProt Q9BQ69) -0.0967
PTPN18 C310 (UniProt Q99952) 0.235
ZNF512 C324 (UniProt Q96ME7) 0.191
SPAG5 C589 (UniProt Q96R06) 0.273
USP47 C856 (UniProt Q96K76) 0.276
VPS35 C653 (UniProt Q96QK1) 0.298
MARK4 C459 (UniProt Q96L34) 0.636
DOK1 C224 (UniProt Q99704) 0.25
UniProt Q9BQ75_C55 0.525
PUS7 C443 (UniProt Q96PZ0) 0.147

Quoted at random: three entries already listed.
log2 ratio of iodoacetamide-alkyne labeling, inactive:
EHMT2 C1175 (UniProt Q96KQ7) -0.0216
NGLY1 C197 (UniProt Q96IV0) 0.0457
KIF2C C287 (UniProt Q99661) 0.0204
